In publication PMC12514197:
These are yes or no findings as the source states them, for the method shown. Some results given as binding are weak or reduced against the parent protein; the word gives no strength.

Target: T1, beta dystroglycan chain of recombinant prodystroglycan (human) (UniProt Q14118)
T1 sequence: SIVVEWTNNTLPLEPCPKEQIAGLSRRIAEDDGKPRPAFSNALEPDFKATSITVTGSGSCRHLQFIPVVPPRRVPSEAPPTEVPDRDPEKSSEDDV
Assay: nickel affinity co-purification; secreted prodystroglycan purified from the media on Ni-NTA / His60 Ni IMAC resin by the C-terminal His6 tag of the beta chain; alpha chain followed by Coomassie stain and anti-DGN blot

B1: alpha dystroglycan chain of recombinant prodystroglycan (domain or fragment, UniProt Q14118 28-653)
chain: QSHWPSEPSEAVRDWENQLEASMHSVLSDLHEAVPTVVGIPDGTAVVGRSFRVTIPTDLIASSGDIIKVSAAGKEALPSWLHWDSQSHTLEGLPLDTDKGVHYISVSATRLGANGSHIPQTSSVFSIEVYPEDHSELQSVRTASPDPGEVVSSACAADEPVTVLTVILDADLTKMTPKQRIDLLHRMRSFSEVELHNMKLVPVVNNRLFDMSAFMAGPGNAKKVVENGALLSWKLGCSLNQNSVPDIHGVEAPAREGAMSAQLGYPVVGWHIANKKPPLPKRVAAQIHATPTPVTAIGPPTTAIQEPPSRIVPTPTSPAIAPPTETMAPPVRDPVPGKPTVTIRTRGAIIQTPTLGPIQPTRVSEAGTTVPGQIRPTMTIPGYVEPTAVATPPTTTTKKPRVSTPKPATPSTDSTTTTTRRPTKKPRTPRPVPRVTTKVSITRLETASPPTRIRTTTSGVPRGGEPNQRPELKNHIDRVDAWVGTYFEVKIPSDTFYDHEDTTTDKLKLTLKLREQQLVGEKSWVQFNSNSQLMYGLPDSSHVGKHEYFMHATDKGGLSAVDAFEIHVHRRPQGDRAPARFKAKFVGDPALVLNDIHKKIALVKKLAFAFGDRNCSTITLQNITRG
modifications: heavily and heterogeneously O-glycosylated mucin-like domain
With B1 the binding was “binds”.
